Assay results as given in patent US20130123460A1, “PEPTIDE FOR IMPROVING BIOSTABILITY OF BIOACTIVE SUBSTANCE, AND BIOACTIVE SUBSTANCE HAVING IMPROVED BIOSTABILITY” (priority 2010, published 2013).
Some entries share one result that the patent states for a list of compounds. Not every detail of the peptide structures is certain; ends, links or a residue may be inferred.

Test: Plasma stability of GLP-1 peptide complex (remaining rate in rat plasma, HPLC/MS)
Assay type: in vitro ADME, SD rats
Details: 0.5 μmol/L, 37° C., relative to 0 hour = 100%

Structure (SMILES): CC[C@H](C)[C@H](NC(=O)[C@H](Cc1ccccc1)NC(=O)[C@H](CCC(=O)O)NC(=O)[C@H](CCCCN)NC(=O)[C@H](C)NC(=O)[C@H](C)NC(=O)[C@H](CCC(N)=O)NC(=O)CNC(=O)[C@H](CCC(=O)O)NC(=O)[C@H](CC(C)C)NC(=O)[C@H](Cc1ccc(O)cc1)NC(=O)[C@H](CO)NC(=O)[C@H](CO)NC(=O)[C@@H](NC(=O)[C@H](CC(=O)O)NC(=O)[C@H](CO)NC(=O)[C@@H](NC(=O)[C@H](Cc1ccccc1)NC(=O)[C@@H](NC(=O)CNC(=O)[C@H](CCC(=O)O)NC(=O)[C@H](CO)NC(=O)[C@@H](N)Cc1c[nH]cn1)[C@@H](C)O)[C@@H](C)O)C(C)C)C(=O)N[C@@H](C)C(=O)N[C@@H](Cc1c[nH]c2ccccc12)C(=O)N[C@@H](CC(C)C)C(=O)N[C@H](C(=O)N[C@@H](CCCCN)C(=O)NCC(=O)N[C@@H](CC(C)C)C(=O)N[C@H](C(=O)N[C@@H](CC(=O)O)C(=O)N[C@@H](CCC(=O)O)C(=O)N[C@H](C(=O)N[C@@H](CC(C)C)C(=O)N[C@@H](C)C(=O)N[C@@H](C)C(=O)O)[C@@H](C)CC)[C@@H](C)CC)C(C)C [Example 20, [Ser8]-GLP-1(7-35)-GAm(37-44)]
- Remaining rate in plasma after 48 hours (%): equal effect to that obtained in the amide form
